Data: US9018207B2, “Method of treatment or prophylaxis” (Spinifex Pharmaceuticals Pty Ltd, priority 2004, dated 2015)
Some results were stated once for a whole list of compounds, not compound by compound. At least one structure is not confirmed: it was looked up by name or label, or the drawing left a doubt. Some compounds share one range, which may span the group rather than tell each member.

Tested on: STZ-diabetic rats
Test: Relief of tactile allodynia (von Frey paw withdrawal thresholds) in the hindpaws of STZ-diabetic rats (model of PDN)
Type: in vivo, Sprague-Dawley (SD) rats
Details: for durations of action: i.p., higher doses tested; for time of peak responses post-dosing (summary in discussion): single i.p. bolus doses
Experimental: Adult male SD rats were anaesthetized in a manner similar to that described above, to facilitate insertion of a polyethylene cannula (previously filled with 0.1 ml of sterile saline) into the right common jugular vein. Jugular vein cannulae were tested for correct placement by the withdrawal of a small amount of blood. Diabetes was induced following an acute i.v. injection of streptozotocin (STZ) (80 mg/kg) in 0.1 M citrate buffer (pH 4.5) into the jugular vein. Diabetes was confirmed by monitoring the water intake and blood glucose concentration in individual rats. Blood glucose was monitored using either (Glucostix™) or a Precision QID™ test kit.
Consistent with previous studies in the literature (Calcutt et al., 1996, Pain. 68(2-3):293-9), rats that drank more than 100 mL of water per day by 10 days post-STZ injection, were classified as diabetic, and only rats with blood glucose concentrations exceeding 15 mM were included in the subsequent experiments. By comparison, the water intake of control non-diabetic rats was approximately 20 mL per day and blood glucose concentrations were in the range 5-6 mM, consistent with the literature (Calcutt et al., 1996, supra).
Whilst under light anaesthesia with CO2/O2 (50:50%), CCI-rats or STZ-diabetic rats received a single bolus injection (200 μL) of one AT2 receptor antagonist (PD123,319 or L-159,686) by the intravenous (i.v.) or the intraperitoneal (i.p.) route, using a 250 μL Hamilton syringe. The test compounds were administered to CCI-rats at 14 days after CCI-surgery and to STZ-diabetic rats at approximately 8-wks after the induction of diabetes with STZ. Relief of tactile (mechanical) allodynia, the defining symptom of neuropathic pain, by each of the test agents, PD123,319 or L-159,686, was quantified using calibrated von Frey filaments as described below.
Tactile allodynia was quantified using calibrated von Frey filaments. Rats were placed in wire mesh testing cages (20 cm×20 cm×20 cm) and allowed to acclimatise for approximately […] Von Frey filaments were used to determine the lowest mechanical threshold required for a brisk paw withdrawal reflex. Briefly, the filament that produced the lowest force was applied to the plantar surface of the hindpaw until the filament buckled slightly. Absence of a response after 5 s prompted use of the next filament in an ascending sequence. Filaments used produced a buckling weight of 2, 4, 6, 8, 10, 12, 14, 16, 18 and 20 g and these were calibrated prior to each testing session.
For CCI-rats, baseline von Frey paw withdrawal thresholds (PWTs) were quantified prior to CCI-surgery, and at 14 days post-surgery immediately prior to drug administration. For STZ-diabetic rats, baseline von Frey PWT values were determined prior to the induction of diabetes with STZ and at 1-2 weekly intervals thereafter for 8 weeks to document the temporal development of tactile allodynia. For all rats, baseline PWTs were the mean of three readings taken, 5 min apart before drug administration and were determined separately for each hindpaw. After administration of each test compound, von Frey PWTs were determined at the following post-dosing times: 0.08, 0.25, 0.5, 0.75, 1, 1.25, 1.5, 2 and 3 h.
Paw withdrawal thresholds (PWTs; g) were plotted against time to construct response versus time curves for each of the two test compounds (PD123,319 and L-159,686) for each dose and dosing route.
Whilst adult male SD rats were anaesthetized with 3% isoflurane: 97% oxygen, a short polyethylene cannula (0.4 mm ID, 0.8 mm OD) was inserted into the jugular vein to facilitate the intravenous (i.v) administration of a single dose of STZ (75 mg/kg). After removal of the i.v. cannula, the jugular vein was tied off, the wound was closed and topical bupivacaine was applied. Rats received benzylpenicillin (60 mg s.c.) to prevent infection and were kept warm during surgical recovery. […]

SMILES	durations of action	time of peak responses post-dosing (summary in discussion)
COc1ccc(Cn2cnc3c2C[C@@H](C(=O)O)N(C(=O)C(c2ccccc2)c2ccccc2)C3)cc1C [PD-121,981]	≥ 3 h	0.25 to 1.0 h
COc1ccc2c(c1OCc1ccccc1)C[C@@H](C(=O)O)N(C(=O)C(c1ccccc1)c1ccccc1)C2 [PD-126,055]	≥ 3 h	0.25 to 1.0 h
CCc1nc2ccc(N(Cc3ccccc3)C(=O)c3cccs3)cc2c(=O)n1Cc1ccc(-c2ccccc2-c2nn[nH]n2)cc1.[Na] [L-161,638 (sodium salt), thiophene-2-carboxylic Acid benzyl-{2-ethyl-4-oxo-3-[2′-(2H-tetrazol-5yl)-biphenyl-4-ylmethyl]-3,4-dihydro-quinazolin-6-yl}-amide Sodium Salt]	≥ 3 h	0.25 to 1.0 h
